{"sequences": {"note": "Amino acid sequences for entries named in this document (tags omitted). A change or cut given only in a name is not applied to a line headed by its entry.", "UniProt Q8WTT0": "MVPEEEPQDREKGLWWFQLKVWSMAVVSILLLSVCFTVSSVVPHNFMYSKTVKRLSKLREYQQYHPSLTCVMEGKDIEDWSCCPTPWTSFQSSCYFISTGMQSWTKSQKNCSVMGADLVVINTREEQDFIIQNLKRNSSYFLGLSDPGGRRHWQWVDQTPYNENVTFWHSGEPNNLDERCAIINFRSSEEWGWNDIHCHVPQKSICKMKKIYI"}, "source": "patent US20200277385A1", "binders": {"B1": {"name": "humanized antibody 122A2H7 (antibody, human IgG1, kappa, V domains shown)", "VH": "QVQLQQSGAEVVKPGASVKISCKGSGYTFTDYSMHWVRQAPGQGLEWIGVISTYYGDSNYNQKFKGKVTMTVDKSSSTAYMELSRLTSDDTAVYYCARNGNFYVMDYWGQGTLVTVSS", "VL": "DIQMTQSTSSLSASLGDRVTITCQASQDISNYLNWYQQKPDGTVKLLIYYTSRLHTGVPSRFSGSGSGTDYSLTISNLDQEDIATYYCQQGNTLPWTFGGGTKLEIKR"}, "B2": {"name": "humanized antibody 122A2H10 (antibody, human IgG1, kappa, V domains shown)", "VH": "B1 VH with P41H, G42A, Q43K, G44S, K74T, T87R", "VL": "B1 VL with T8P, L15V"}, "B3": {"name": "humanized antibody 122A2H14 (antibody, human IgG1, kappa, V domains shown)", "VH": "B1 VH with P41H, G42A, Q43K, G44S, K74T, T87R", "VL": "B1 VL with R53N, D79Q"}, "B4": {"name": "humanized antibody 122A2H15 (antibody, human IgG1, kappa, V domains shown)", "VH": "B1 VH", "VL": "B1 VL with R53N, D79Q"}, "B5": {"name": "hybrid antibody 122A2H3 (antibody, human IgG1, kappa, V domains shown)", "VH": "B1 VH", "VL": "B1 VL with S7T, T22S, Q24R, T56S, Y87F"}, "B6": {"name": "humanized antibody 102E9H13 (antibody, human IgG1, kappa, V domains shown)", "VH": "QIHLVQSGPELKKPGESVKISCKASGYTFTDYSMHWVKQAPGQGLKWMGWINTETGEPTYADDFKGRFVFSLDTSVSTAYLQINSLKNEDTSTYYCTRNGYYVGYYAMDYWGQGTSVTVSS", "VL": "QIQLTQSPSFLSASPGDRVTITCSASSSVIYIHWFQQKPGKAPKLWIYSTSYLASGVPSRFSGSGSGTEYTLTISSMQAEDFATYYCQQRRSYPFTFGGGTKLEIKR"}, "B7": {"name": "humanized antibody 102E9H5 (antibody, human IgG1, kappa, V domains shown)", "VH": "B6 VH", "VL": "B6 VL with D17E, Q78E"}, "B8": {"name": "humanized antibody 102E9H9 (antibody, human IgG1, kappa, V domains shown)", "VH": "B6 VH", "VL": "B6 VL with D17E, K41T, E69S, S76R, Q78E"}, "B9": {"name": "humanized antibody 102E9H10 (antibody, human IgG1, kappa, V domains shown)", "VH": "B6 VH with K38R, D62Q", "VL": "B6 VL with D17E, K41T, E69S, S76R, Q78E"}, "B10": {"name": "hybrid antibody 122A2H1 (antibody, human IgG1, kappa, V domains shown)", "VH": "B1 VH with R38K, P41H, G42A, Q43K, G44S", "VL": "B1 VL with S7T, T22S, Q24R, T56S, Y87F"}, "B11": {"name": "hybrid antibody 122A2H2 (antibody, human IgG1, kappa, V domains shown)", "VH": "B1 VH with P41H, G42A, Q43K, G44S, K74T, T87R", "VL": "B1 VL with S7T, T22S, Q24R, T56S, Y87F"}, "B12": {"name": "hybrid antibody 102E9H1 (antibody, human IgG1, kappa, V domains shown)", "VH": "B6 VH", "VL": "QIVLTQSPAIMSASPGEKVTITCSASSSVIYIHWFQQKPGTSPKLWIYSTSYLASGVPARFSGSGSGTSYSLTISRMEAEDAATYYCQQRRSYPFTFGGGTKLEIKR"}, "B13": {"name": "hybrid antibody 102E9H4 (antibody, human IgG1, kappa, V domains shown)", "VH": "B6 VH with E10D, S17T, Q43K, V69A, D73E, T74S, V76A, Y80F, S85N, Y95F", "VL": "B6 VL with D17E, Q78E"}, "B14": {"name": "hybrid antibody 102E9H8 (antibody, human IgG1, kappa, V domains shown)", "VH": "B6 VH with E10D, S17T, Q43K, V69A, D73E, T74S, V76A, Y80F, S85N, Y95F", "VL": "B6 VL with D17E, K41T, E69S, S76R, Q78E"}, "B15": {"name": "hybrid antibody 102E9H12 (antibody, human IgG1, kappa, V domains shown)", "VH": "B6 VH with E10D, S17T, Q43K, V69A, D73E, T74S, V76A, Y80F, S85N, Y95F", "VL": "B6 VL"}}, "note": "Numbering of substitutions follows the chain as printed. Results are given in words; binding and its absence hold for the method and conditions named. Some binding calls cover weakened binding; strength is not graded here."}
{"biological_target": "CD303 ectodomain (human) (UniProt Q8WTT0)", "assay": "ELISA on coated CD303 ectodomain"}
{"binder": "B1", "binding": "binds"}
{"binder": "B2", "binding": "binds"}
{"binder": "B3", "binding": "binds"}
{"binder": "B4", "binding": "binds"}
{"biological_target": "CD303 ectodomain (human) (UniProt Q8WTT0)", "assay": "ELISA on coated CD303 ectodomain (basis of the selection for cytometry)"}
{"binder": "B5", "binding": "binds"}
{"biological_target": "CD303 ectodomain (human) (UniProt Q8WTT0)", "assay": "ELISA on coated CD303 ectodomain, 102E9 derivatives"}
{"binder": "B6", "binding": "binds"}
{"binder": "B7", "binding": "binds"}
{"binder": "B8", "binding": "binds"}
{"binder": "B9", "binding": "binds"}
{"biological_target": "CD303 ectodomain (human) (UniProt Q8WTT0)", "assay": "ELISA on coated CD303 ectodomain, 122A2 and derivatives, 1.75 to 10 ng/mL"}
{"binder": "B10", "binding": "binds"}
{"binder": "B11", "binding": "binds"}
{"binder": "B5", "binding": "binds"}
{"binder": "B1", "binding": "binds"}
{"binder": "B2", "binding": "binds"}
{"binder": "B3", "binding": "binds"}
{"binder": "B4", "binding": "binds"}
{"biological_target": "CD303 ectodomain (human) (UniProt Q8WTT0)", "assay": "ELISA on coated CD303 ectodomain, HEK-293 supernatants"}
{"binder": "B6", "binding": "binds"}
{"binder": "B7", "binding": "binds"}
{"binder": "B8", "binding": "binds"}
{"binder": "B9", "binding": "binds"}
{"binder": "B10", "binding": "binds"}
{"binder": "B11", "binding": "binds"}
{"binder": "B5", "binding": "binds"}
{"binder": "B1", "binding": "binds"}
{"binder": "B2", "binding": "binds"}
{"binder": "B3", "binding": "binds"}
{"binder": "B4", "binding": "binds"}
{"binder": "B12", "binding": "binds"}
{"binder": "B13", "binding": "binds"}
{"binder": "B14", "binding": "binds"}
{"binder": "B15", "binding": "binds"}
